According to patent publication US20070004622A1:
Results are given in words; binding and its absence hold for the method and conditions named. Some binding calls cover weakened binding; strength is not graded here.

Amino acid sequences for entries named in this document (tags omitted). A change or cut given only in a name is not applied to a line headed by its entry.
UniProt P06756: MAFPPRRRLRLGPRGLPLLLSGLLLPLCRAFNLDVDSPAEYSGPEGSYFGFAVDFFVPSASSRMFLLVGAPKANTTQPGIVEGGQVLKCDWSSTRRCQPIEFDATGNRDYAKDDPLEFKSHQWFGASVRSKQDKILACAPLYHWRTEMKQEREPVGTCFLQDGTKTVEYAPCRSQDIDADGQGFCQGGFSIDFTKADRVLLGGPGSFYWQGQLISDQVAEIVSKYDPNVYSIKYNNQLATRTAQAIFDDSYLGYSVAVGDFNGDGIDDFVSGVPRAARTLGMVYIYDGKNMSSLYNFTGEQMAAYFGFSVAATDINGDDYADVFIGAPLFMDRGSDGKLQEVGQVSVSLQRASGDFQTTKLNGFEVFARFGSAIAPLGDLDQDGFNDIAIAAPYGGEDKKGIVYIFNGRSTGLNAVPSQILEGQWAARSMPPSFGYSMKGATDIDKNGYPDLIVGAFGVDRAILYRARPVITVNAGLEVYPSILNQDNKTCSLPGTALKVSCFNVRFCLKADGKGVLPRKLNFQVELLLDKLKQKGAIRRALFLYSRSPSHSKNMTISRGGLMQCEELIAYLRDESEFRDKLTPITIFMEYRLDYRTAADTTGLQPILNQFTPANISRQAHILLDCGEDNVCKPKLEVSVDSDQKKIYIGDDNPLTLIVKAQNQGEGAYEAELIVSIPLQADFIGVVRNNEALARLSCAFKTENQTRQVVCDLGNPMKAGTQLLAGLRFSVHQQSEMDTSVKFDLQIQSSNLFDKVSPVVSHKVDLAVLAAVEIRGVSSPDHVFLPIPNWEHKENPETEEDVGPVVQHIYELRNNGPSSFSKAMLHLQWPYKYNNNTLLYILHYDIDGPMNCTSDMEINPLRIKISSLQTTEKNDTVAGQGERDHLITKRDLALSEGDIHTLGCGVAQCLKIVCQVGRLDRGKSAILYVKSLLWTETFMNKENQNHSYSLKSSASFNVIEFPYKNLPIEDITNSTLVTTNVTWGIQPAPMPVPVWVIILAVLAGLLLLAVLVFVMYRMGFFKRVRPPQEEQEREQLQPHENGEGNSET
UniProt P05106: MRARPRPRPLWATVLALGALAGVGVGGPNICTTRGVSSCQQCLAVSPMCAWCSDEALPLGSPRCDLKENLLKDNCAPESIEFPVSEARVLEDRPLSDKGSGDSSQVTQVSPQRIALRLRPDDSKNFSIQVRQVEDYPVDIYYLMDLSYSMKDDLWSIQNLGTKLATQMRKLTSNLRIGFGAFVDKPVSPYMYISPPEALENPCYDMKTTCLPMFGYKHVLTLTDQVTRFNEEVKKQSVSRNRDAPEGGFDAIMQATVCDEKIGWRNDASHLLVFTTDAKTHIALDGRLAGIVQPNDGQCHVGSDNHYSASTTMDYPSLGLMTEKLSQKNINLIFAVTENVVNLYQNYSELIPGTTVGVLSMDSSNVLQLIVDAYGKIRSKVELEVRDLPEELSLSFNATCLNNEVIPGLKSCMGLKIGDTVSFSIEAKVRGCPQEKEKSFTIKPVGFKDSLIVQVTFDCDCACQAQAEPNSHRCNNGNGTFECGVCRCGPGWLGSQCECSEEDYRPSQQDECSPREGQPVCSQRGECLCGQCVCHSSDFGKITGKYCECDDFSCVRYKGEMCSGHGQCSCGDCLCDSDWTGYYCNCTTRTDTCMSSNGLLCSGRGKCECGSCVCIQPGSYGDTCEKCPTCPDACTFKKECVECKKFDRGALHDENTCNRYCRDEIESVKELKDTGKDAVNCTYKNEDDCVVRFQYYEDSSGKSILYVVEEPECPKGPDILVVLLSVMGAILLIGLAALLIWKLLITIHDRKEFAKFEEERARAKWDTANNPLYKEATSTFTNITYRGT

Molecular target: αvβ3 integrin (human) (UniProt P06756+P05106)
Test: biotin-βig-h3 incubated with HUVECs at 4° C., lysates blotted with streptavidin-HRP

- binding: binds
B1: biotinylated βig-h3 (ligand)
chain: YQRKICGKSTVISYECCPGYEKVPGEKGCPAALPLSNLYETLGVVGSTTTQLYTDRTEKLRPEMEGPGSFTIFAPSNEAWASLPAEVLDSLVSNVNIELLNALRYHMVGRRVLTDELKHGMTLTSMYQNSNIQIHHYPNGIVTVNCARLLKADHHATNGVVHLIDKVISTITNNIQQIIEIEDTFETLRAAVAASGLNTMLEGNGQYTLLAPTNEAFEKIPSETLNRILGDPEALRDLLNNHILKSAMCAEAIVAGLSVETLEGTTLEVGCSGDMLTINGKAIISNKDILATNGVIHYIDELLIPDSAKTLFELAAESDVSTAIDLFRQAGLGNHLSGSERLTLLAPLNSVFKDGTPPIDAHTRNLLRNHIIKDQLASKYLYHGQTLETLGGKKLRVFVYRNSLCIENSCIAAHDKRGRYGTLFTMDRVLTPPMGTVMDVLKGDNRFSMLVAAIQSAGLTETLNREGVYTVFAPTNEAFRALPPRERSRLLGDAKELANILKYHIGDEILVSGGIGALVRLKSLQGDKLEVSLKNNVVSVNKEPVAEPDIMATNGVVHVITNVLQPPANRPQERGDELADSALEI
modifications: biotinylated (sites not given)
